Among all 300,000 compounds or so, about 3,700 (1.2%) were called active. Inconclusive means that the source gave no clear call. Such entries were picked first, then a sample of the others. Calls follow the shape of the full dose curve; tested in HEK293 cells. Potencies beside an inconclusive call are fits to weak or partial responses and may not hold up.
Experiment: qHTS for Inhibitors of binding or entry into cells for Lassa Virus; also: nearly all actives have a fitted effect of over 50% in size
Settings: Lassa virus pseudotype entry inhibition, cell reporter; activity change, negative = inhibition: at 37.9 µM (top of the series) unless noted
In the case of `CN(c1ccccc1)S(=O)(=O)c1cccc(NC(=O)CCNC(=O)c2ccc([N+](=O)[O-])cc2)c1`, the Potency is reported as inconclusive: 35.5 µM [inhibitor, single point].
For `CCCCC(=O)Nc1cccc(NC(=O)C(C)C)c1`, the “activity change, negative = inhibition” value was inactive: 9.89%.
With `CSc1ncc(C(=O)NCc2ccc(F)cc2)c(-c2ccccc2)n1` the “activity change, negative = inhibition” value was inactive: 20.2% [at 46.1 µM].
For `O=C1C(C=Nc2ccccc2)=C(O)c2ccccc21`, the Potency was inconclusive: 0.708 µM [activator, single point].
In the case of `CCC(=O)NNc1ncnc2c1cnn2-c1ccccc1`, the “activity change, negative = inhibition” value is reported as inactive: 18.2%.
With `Cc1cccc(-c2nc(SCCCOc3cc(C)c(Cl)c(C)c3)n3[nH]c(=O)cc3n2)c1` the Potency was inconclusive: 8.91 µM [activator, partial curve, poor fit].
With `COc1ccc(Nc2ncnc3c2cnn3-c2cc(Cl)ccc2C)cc1OC` the Potency was inconclusive: 10 µM [inhibitor, partial curve].
For `CCOc1ccc(S(=O)(=O)N(CCO)CCO)cc1-c1nc2c(C(C)(C)C)nn(C)c2c(=O)[nH]1`, the Potency was inconclusive: 35.5 µM [inhibitor, single point].
In the case of `CCOc1ccccc1C(=O)Nc1nn[nH]n1`, the Potency is reported as inconclusive: 5.17 µM [inhibitor, partial curve, poor fit].
For `COc1ccccc1/C=C1\SC(=O)N(CC(=O)NCCCn2ccnc2)C1=O`, the “activity change, negative = inhibition” value was inactive: 7.23% [at 46.1 µM].
With `CCOc1ccc(C(=O)NCc2ccccc2OC)cc1` the Potency was inconclusive: 35.5 µM [activator, single point].
For `CS(=O)(=O)N1CCN(C(=O)c2ccc(F)cc2)CC1`, the “activity change, negative = inhibition” value was inactive: -11.5%.
For `COc1ccc(Cl)cc1NC(=O)c1ccc(CN2C(=O)CCn3nc(C)cc32)cc1`, the Potency was inconclusive: 3.55 µM [activator, single point].
For `CCc1ccc(/C=N/NC(=O)c2cc(C3CC3)nc3ccc(Br)cc23)s1`, the Potency was inconclusive: 10 µM [inhibitor, partial curve].
With `COc1ccc(-c2nnc(SCC(=O)Nc3ncc(C)s3)n2-c2ccccc2)cc1OC` the Potency was inconclusive: 1.46 µM [inhibitor, full curve, poor fit].
With `Cc1ccc(NC2=C([N+](=O)[O-])CS(=O)(=O)C2)cc1` the Potency was inconclusive: 2.31 µM [activator, partial curve, poor fit].
For `CC1Cc2ccccc2N1CC(=O)NC(=O)NCc1ccco1` (centres undefined), the Potency was inconclusive: 20.6 µM [inhibitor, single point].
In the case of `CN(C)c1cc2c3ccccc3n(C)c2cc1N`, the “activity change, negative = inhibition” value is reported as inactive: 8.88%.
With `Cc1ccc(-c2onc(C)c2C)cc1S(=O)(=O)N1CCC(C)CC1` the “activity change, negative = inhibition” value was inactive: -2% [at 46.1 µM].
With `CC(Sc1nc2ccccc2[nH]1)C(=O)NC1CCCCC1C` (centres undefined) the “activity change, negative = inhibition” value was inactive: 3.23%.
With `O=c1oc2c3c4c(cc2s1)CCCN4CCC3` the “activity change, negative = inhibition” value was inactive: 1.88%.
For `CC(C)Oc1ccc(CNC(=O)c2cc3cccc4c3n2CC(C)S4)cc1` (centres undefined), the “activity change, negative = inhibition” value was inactive: 7.32% [at 46.1 µM].
In the case of `O=c1c2ccccc2c(C=Nc2ccc(O)cc2)c(O)n1-c1nccs1`, the Potency is reported as inconclusive: 10 µM [inhibitor, partial curve, poor fit].
In the case of `Fc1cccc(Cl)c1CN1CCN(c2nc3ccccc3s2)CC1`, the Potency is reported as inconclusive: 35.5 µM [inhibitor, single point].
With `CCOc1ccc(Nc2sc(C(=O)c3ccc(F)cc3)c(N)c2S(=O)(=O)c2ccc(C)cc2)cc1` the Potency was inconclusive: 1.41 µM [inhibitor, partial curve, poor fit].
With `COc1ccc(C(=O)c2cc([N+](=O)[O-])ccc2N2CCN(C)CC2)cc1` the “activity change, negative = inhibition” value was inactive: -24.2%.
For `CCOC(=O)Cc1csc(NC(=O)c2c(O)c3ccccc3n(CC(C)C)c2=O)n1`, the Potency was inconclusive: 2.91 µM [activator, partial curve, poor fit].
With `COc1ccc(-c2cc(C(F)(F)F)n3ncc(C(=O)N(C)Cc4ccccc4)c3n2)cc1` the Potency was inconclusive: 35.5 µM [inhibitor, single point].
In the case of `O=C1CC(c2ccccc2)CC(O)=C1C=Nc1ccccc1Cl` (centres undefined), the Potency is reported as inconclusive: 35.5 µM [inhibitor, partial curve, poor fit].
For `CS(=O)(=O)c1ncc(Cl)c(C(=O)N2CCN(c3cccc(Cl)c3)CC2)n1`, the Potency was inconclusive: 10 µM [inhibitor, partial curve, poor fit].
In the case of `O=C(Nc1nc(-c2ccccc2)cs1)C1CCCN(S(=O)(=O)c2ccccc2)C1` (centres undefined), the Potency is reported as active: 10.3 µM.
In the case of `CCN(C(=O)CSc1nnc(-c2cc3occc3n2C)n1-c1ccccc1C)c1ccccc1`, the Potency is reported as inconclusive: 35.5 µM [activator, single point].
With `O=C(NC(=S)N1CCCCCC1)c1ccc(Cl)cc1Cl` the “activity change, negative = inhibition” value was inactive: -27.2% [at 46.1 µM].
With `CCCCS(=O)(=O)N1CCCC(C(=O)Oc2ccc(Cl)cc2)C1` (centres undefined) the “activity change, negative = inhibition” value was inactive: 3.18%.
With `CCN(CC(=O)Nc1ccc(NC(C)=O)cc1)C(=O)/C=C/c1ccc([N+](=O)[O-])cc1` the “activity change, negative = inhibition” value was inactive: 2.46%.
In the case of `CCNC(=O)NC(=O)C(C)OC(=O)CCCc1nc2ccccc2s1` (centres undefined), the Potency is reported as inconclusive: 1.78 µM [inhibitor, full curve, poor fit].
With `COc1ccc(C(=O)CN2CCN(S(=O)(=O)c3ccc(F)cc3)CC2)cc1` the Potency was inconclusive: 35.5 µM [activator, single point].
With `O=C(Nc1ccccc1)ON=C1c2ccccc2-c2ccccc21` the “activity change, negative = inhibition” value was inactive: 11.4%.
For `c1ccc(-c2cc(-c3ccccc3)n3ncnc3n2)cc1`, the Potency was inconclusive: 35.5 µM [inhibitor, partial curve, poor fit].
With `O=C(Nc1ccc(Cl)cc1)c1ccc2oc(=O)n(Cc3ccccc3)c2c1` the Potency was inconclusive: 11.2 µM [inhibitor, partial curve, poor fit].
For `COc1ccc2cc(CN(Cc3cccnc3)S(=O)(=O)c3ccccc3)c(=O)[nH]c2c1`, the Potency was inconclusive: 35.5 µM [inhibitor, single point].
In the case of `O=C(Nc1sc2c(c1C(=O)c1ccc(Cl)cc1)CCCC2)c1cccnc1`, the Potency is reported as inconclusive: 2.91 µM [activator, partial curve, poor fit].
With `O=C(COC(=O)c1cc(S(=O)(=O)N2CCCCC2)ccc1N1CCOCC1)c1ccccc1` the “activity change, negative = inhibition” value was inactive: -13%.
In the case of `COc1ccc(N(C)S(=O)(=O)c2ccc3c(c2)CC(C)N3C(=O)C2CC2)c(OC)c1` (centres undefined), the Potency is reported as inconclusive: 3.16 µM [inhibitor, partial curve, poor fit].
In the case of `COc1ccc(CCN2C(=O)C=CC2=O)cc1OC`, the Potency is reported as inconclusive: 17.8 µM [inhibitor, single point].
With `CC(=O)Nc1cccc(C(=O)/C=C/c2ccc(F)cc2)c1` the Potency was inconclusive: 35.5 µM [inhibitor, single point].
With `Cc1ccc(NC(=O)C2COc3ccccc3O2)nc1` (centres undefined) the Potency was inconclusive: 5.62 µM [activator, single point].
In the case of `Cc1ccc(N(CC(=O)NCC2CCCO2)C(=O)CNS(=O)(=O)c2ccc(Cl)cc2)cc1` (centres undefined), the Potency is reported as inconclusive: 4.47 µM [inhibitor, partial curve, poor fit].
For `COc1ccc(-c2nn(CC(=O)NCCc3ccccc3)c(=S)n2C)cc1`, the Potency was active: 12.6 µM.
With `Cc1ccc(-c2csc(N(CCCN3CCOCC3)C(=O)c3ccco3)n2)cc1` the Potency was inconclusive: 18.3 µM [inhibitor, single point].
In the case of `Cn1nc(-c2ccc(N3CCCCC3)c(NC(=O)c3ccco3)c2)c2ccccc2c1=O`, the Potency is reported as inconclusive: 3.98 µM [inhibitor, full curve].
With `COc1cc2c(cc1OC)C(COc1ccc3c(C)cc(=O)oc3c1)N(C(=O)c1ccc(C)cc1)CC2` (centres undefined) the “activity change, negative = inhibition” value was inactive: -29.9% [at 46.1 µM].
In the case of `COc1cccc(C(=O)NCc2ccc3c(c2)OCO3)c1`, the Potency is reported as inconclusive: 5.62 µM [activator, full curve, poor fit].
In the case of `C/C(N)=C(/C#N)C(=O)COc1ncnc2ccccc12`, the “activity change, negative = inhibition” value is reported as inactive: 8.12%.
With `CCOC(=O)c1ccc(N2C(=O)c3[nH]nc(-c4ccc(C)cc4)c3C2c2ccc(O)cc2)cc1` (centres undefined) the Potency was inconclusive: 10 µM [inhibitor, single point].
In the case of `CCOc1ccc(Cc2n[nH]c(=S)n2N)cc1`, the “activity change, negative = inhibition” value is reported as inactive: 8.73%.
For `CCOc1ccccc1NC(=O)Nc1cccc(NC(C)=O)c1`, the “activity change, negative = inhibition” value was inactive: -12.9% [at 46.1 µM].
In the case of `Cc1ccccc1NC(=O)c1ccno1`, the Potency is reported as inconclusive: 11.2 µM [activator, partial curve, poor fit].
For `C(=NN1CCCCCC1)c1ccc2c(c1)OCO2`, the Potency was inconclusive: 11.2 µM [inhibitor, partial curve, poor fit].
With `COc1ccc(NC(=O)c2nc(C)n(-c3ccc([N+](=O)[O-])cc3)n2)cc1` the “activity change, negative = inhibition” value was inactive: -0.12% [at 46.1 µM].
For `O=Cc1cccc(OCc2cccc3ccccc23)c1`, the Potency was inconclusive: 5.62 µM [inhibitor, single point].
In the case of `CCN(CC)S(=O)(=O)c1ccc(NC(=O)c2nn(C)c3c2CSc2ccccc2-3)cc1`, the Potency is reported as inconclusive: 8.91 µM [activator, partial curve, poor fit].
With `CCOc1ccc(Nc2nc(N)c(C(=O)c3ccccc3Cl)s2)cc1` the Potency was inconclusive: 0.708 µM [inhibitor, full curve, poor fit].
For `CCOC(=O)N1CCN(C(=S)Nc2cc(OC)c(OC)cc2C(=O)OC)CC1`, the Potency was inconclusive: 6.51 µM [inhibitor, single point].
For `COc1ccc(NC(=O)c2ocnc2C)cc1OC`, the Potency was inconclusive: 32.6 µM [activator, single point].
With `O=C(c1cc(-c2ccc(Br)cc2)n[nH]1)N1CCN(S(=O)(=O)c2ccc(Br)s2)CC1` the Potency was inconclusive: 7.94 µM [inhibitor, partial curve, poor fit].
For `CCOC(=O)c1nnn(CC(=O)NC(=O)Nc2ccccc2F)c1C(=O)OCC`, the Potency was inconclusive: 6.31 µM [inhibitor, single point].
In the case of `O=C(CCC(=O)Nc1ccccc1)N/N=C/c1ccco1`, the “activity change, negative = inhibition” value is reported as inactive: 0.064%.
In the case of `Cc1cc(=O)oc(C)c1C(=O)NCCCN1CCN(c2ccc(F)cc2)CC1`, the “activity change, negative = inhibition” value is reported as inactive: -4.35%.

— PubChem BioAssay AID540256 (National Center for Advancing Translational Sciences (NCATS), 2011)
% is scaled to controls: 0 for no effect and ±100 for the full control effect; potency is read from the fitted curve at half-maximal effect.
